# Experimental data taken from the supplement of paper PMC12819154, “High-throughput peptide-centric local stability assay extends protein–ligand identification to membrane proteins, tissues and bacteria” (Nature Structural & Molecular Biology, 2025).
# The chains behind the UniProt entries cited, without tags or fusion partners. Where a name states a change or a piece, a line headed by the entry shows the natural chain unless it says otherwise.
# UniProt Q8C3R1: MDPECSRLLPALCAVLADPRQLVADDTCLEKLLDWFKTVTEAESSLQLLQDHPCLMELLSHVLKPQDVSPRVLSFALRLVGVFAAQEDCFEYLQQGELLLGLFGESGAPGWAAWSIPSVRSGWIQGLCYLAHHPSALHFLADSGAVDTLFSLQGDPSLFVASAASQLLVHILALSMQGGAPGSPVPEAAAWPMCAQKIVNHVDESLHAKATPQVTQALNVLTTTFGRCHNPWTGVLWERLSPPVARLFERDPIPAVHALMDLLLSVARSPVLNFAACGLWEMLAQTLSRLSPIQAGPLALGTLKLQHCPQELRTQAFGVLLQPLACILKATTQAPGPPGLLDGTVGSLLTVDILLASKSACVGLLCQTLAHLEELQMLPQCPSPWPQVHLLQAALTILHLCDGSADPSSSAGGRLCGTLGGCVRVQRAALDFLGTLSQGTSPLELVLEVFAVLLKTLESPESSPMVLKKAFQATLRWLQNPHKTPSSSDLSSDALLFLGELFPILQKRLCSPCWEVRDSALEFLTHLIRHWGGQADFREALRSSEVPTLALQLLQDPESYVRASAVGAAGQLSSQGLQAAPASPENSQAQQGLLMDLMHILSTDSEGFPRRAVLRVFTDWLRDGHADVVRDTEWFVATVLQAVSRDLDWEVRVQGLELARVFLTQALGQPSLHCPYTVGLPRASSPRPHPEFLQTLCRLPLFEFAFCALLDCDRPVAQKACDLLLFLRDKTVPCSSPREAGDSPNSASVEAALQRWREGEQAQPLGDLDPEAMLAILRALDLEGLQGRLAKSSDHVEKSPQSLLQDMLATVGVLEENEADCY
# UniProt Q8C6G8: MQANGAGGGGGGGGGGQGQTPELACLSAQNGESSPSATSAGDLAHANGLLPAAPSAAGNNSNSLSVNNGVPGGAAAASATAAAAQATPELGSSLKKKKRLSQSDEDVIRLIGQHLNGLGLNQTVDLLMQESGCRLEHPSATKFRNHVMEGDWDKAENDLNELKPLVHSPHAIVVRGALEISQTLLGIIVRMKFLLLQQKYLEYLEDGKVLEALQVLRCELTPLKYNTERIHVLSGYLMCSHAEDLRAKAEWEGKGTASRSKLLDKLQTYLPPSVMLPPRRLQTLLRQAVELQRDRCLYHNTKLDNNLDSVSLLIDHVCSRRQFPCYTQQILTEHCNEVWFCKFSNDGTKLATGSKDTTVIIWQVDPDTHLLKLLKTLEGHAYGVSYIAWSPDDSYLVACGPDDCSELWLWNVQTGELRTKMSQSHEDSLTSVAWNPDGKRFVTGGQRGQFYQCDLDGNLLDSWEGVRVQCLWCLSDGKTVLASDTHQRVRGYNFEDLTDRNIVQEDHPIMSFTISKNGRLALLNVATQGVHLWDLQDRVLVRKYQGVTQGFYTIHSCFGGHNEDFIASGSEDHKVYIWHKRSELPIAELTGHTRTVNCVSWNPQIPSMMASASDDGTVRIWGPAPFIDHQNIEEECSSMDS
# UniProt Q8BXN7: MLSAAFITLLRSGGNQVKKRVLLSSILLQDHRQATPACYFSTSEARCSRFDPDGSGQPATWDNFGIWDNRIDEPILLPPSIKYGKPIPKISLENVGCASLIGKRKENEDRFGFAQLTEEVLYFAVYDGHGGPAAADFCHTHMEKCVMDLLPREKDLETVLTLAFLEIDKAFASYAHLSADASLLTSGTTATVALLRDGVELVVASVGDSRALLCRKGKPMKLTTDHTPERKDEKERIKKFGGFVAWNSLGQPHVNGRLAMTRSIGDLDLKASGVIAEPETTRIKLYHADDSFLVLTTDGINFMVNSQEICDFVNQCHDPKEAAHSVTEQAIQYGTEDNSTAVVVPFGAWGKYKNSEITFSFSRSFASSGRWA
# UniProt Q8C2E7: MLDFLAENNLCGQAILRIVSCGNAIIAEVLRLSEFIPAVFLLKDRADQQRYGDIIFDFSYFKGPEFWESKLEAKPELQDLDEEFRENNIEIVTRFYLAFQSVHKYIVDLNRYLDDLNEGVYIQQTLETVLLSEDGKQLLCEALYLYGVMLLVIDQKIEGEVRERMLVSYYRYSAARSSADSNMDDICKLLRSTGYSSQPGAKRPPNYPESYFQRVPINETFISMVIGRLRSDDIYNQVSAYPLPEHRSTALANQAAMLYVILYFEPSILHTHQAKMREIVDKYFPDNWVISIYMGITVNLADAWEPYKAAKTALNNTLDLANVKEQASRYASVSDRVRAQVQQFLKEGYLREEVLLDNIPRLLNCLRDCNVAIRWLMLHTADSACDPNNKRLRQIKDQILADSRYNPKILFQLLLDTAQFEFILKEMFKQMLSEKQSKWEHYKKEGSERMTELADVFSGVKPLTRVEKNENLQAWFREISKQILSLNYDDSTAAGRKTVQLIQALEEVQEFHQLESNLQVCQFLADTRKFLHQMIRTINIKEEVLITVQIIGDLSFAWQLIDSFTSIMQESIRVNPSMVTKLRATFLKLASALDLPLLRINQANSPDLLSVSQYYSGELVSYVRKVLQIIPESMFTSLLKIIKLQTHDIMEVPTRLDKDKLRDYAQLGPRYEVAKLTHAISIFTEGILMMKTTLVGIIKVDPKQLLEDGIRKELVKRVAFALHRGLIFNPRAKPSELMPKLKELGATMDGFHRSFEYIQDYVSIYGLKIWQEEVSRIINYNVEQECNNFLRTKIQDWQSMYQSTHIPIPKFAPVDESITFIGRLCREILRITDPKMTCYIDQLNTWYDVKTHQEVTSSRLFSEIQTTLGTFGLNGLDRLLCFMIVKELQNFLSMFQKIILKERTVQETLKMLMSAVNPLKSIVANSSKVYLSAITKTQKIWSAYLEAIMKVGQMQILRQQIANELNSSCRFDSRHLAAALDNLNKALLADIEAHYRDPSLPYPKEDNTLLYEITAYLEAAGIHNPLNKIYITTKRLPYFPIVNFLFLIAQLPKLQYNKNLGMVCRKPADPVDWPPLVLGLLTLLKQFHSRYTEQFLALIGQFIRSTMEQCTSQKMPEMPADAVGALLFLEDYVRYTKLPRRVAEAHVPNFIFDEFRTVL
# UniProt Q8C570: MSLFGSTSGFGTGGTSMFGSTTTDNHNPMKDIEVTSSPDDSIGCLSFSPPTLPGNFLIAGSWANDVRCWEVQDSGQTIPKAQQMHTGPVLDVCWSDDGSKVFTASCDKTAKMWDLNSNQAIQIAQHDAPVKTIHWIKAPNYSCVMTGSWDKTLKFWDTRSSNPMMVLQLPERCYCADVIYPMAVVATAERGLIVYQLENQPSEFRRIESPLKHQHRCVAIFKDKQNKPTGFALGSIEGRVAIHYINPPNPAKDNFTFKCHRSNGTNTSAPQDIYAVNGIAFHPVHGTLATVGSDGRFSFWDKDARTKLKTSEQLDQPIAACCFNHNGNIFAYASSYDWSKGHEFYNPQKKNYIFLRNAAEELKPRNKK
# UniProt Q8C5D8, whole entry: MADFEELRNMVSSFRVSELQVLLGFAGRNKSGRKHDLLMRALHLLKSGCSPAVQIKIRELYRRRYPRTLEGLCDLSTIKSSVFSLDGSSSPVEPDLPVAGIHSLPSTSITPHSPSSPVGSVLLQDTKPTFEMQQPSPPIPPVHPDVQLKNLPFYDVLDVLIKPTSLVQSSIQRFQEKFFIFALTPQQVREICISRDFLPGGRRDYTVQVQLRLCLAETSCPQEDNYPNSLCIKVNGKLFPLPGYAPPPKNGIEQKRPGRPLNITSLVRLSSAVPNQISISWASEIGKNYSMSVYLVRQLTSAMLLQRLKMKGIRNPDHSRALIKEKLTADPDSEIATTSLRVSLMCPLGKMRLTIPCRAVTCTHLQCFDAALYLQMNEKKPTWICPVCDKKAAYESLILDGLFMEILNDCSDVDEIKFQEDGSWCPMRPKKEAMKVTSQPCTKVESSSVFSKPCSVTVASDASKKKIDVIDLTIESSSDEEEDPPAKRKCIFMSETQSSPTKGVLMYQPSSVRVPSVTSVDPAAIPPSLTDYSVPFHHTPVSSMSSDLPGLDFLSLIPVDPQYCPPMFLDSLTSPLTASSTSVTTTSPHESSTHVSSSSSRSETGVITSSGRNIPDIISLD
# UniProt Q8C2P3: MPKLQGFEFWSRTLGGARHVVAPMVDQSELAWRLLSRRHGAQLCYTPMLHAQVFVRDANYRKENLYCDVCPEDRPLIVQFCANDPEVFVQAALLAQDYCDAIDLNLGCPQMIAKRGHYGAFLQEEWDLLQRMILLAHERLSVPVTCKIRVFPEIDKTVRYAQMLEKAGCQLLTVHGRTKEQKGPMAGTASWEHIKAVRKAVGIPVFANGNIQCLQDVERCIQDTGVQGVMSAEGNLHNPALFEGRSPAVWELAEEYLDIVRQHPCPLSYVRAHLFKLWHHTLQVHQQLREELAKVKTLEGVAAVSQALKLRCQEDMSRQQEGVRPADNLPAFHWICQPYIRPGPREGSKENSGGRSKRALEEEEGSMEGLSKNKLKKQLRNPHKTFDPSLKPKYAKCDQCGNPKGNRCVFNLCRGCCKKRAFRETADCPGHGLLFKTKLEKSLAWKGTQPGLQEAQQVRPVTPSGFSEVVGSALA
# UniProt Q8BXA5: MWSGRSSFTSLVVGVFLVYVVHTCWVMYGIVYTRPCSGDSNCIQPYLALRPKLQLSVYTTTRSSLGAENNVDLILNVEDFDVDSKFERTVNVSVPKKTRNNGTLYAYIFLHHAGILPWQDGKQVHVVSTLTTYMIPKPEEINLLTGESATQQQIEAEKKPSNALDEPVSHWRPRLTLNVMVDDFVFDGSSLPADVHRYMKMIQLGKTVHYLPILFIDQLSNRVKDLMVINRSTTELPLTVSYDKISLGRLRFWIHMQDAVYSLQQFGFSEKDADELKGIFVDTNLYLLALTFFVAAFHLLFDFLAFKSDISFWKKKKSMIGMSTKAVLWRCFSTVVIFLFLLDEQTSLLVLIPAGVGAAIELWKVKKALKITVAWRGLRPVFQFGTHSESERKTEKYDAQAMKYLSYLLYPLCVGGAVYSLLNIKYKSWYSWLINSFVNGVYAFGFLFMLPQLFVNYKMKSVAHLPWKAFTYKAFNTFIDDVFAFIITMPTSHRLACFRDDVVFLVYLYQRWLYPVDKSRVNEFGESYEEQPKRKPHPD
# UniProt Q8C3X8: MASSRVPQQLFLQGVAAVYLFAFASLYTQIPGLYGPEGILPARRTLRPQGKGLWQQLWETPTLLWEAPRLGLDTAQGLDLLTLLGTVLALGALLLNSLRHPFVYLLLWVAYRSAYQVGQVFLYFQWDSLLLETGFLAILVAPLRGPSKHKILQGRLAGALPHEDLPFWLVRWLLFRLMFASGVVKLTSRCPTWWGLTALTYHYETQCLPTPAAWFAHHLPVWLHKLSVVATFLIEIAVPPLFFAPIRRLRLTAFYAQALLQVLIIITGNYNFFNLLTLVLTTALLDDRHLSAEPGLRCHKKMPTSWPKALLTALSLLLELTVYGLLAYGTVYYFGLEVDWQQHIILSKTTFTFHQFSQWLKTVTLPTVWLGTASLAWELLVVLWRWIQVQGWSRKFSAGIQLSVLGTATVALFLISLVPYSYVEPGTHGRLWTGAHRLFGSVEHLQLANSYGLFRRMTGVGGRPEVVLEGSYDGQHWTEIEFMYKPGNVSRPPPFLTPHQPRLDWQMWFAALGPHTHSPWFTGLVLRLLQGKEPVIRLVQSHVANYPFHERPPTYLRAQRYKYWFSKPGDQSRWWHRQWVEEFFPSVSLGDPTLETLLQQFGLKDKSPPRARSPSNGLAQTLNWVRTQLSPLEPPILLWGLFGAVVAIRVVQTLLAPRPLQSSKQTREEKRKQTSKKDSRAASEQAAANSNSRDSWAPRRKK
# UniProt Q8C804: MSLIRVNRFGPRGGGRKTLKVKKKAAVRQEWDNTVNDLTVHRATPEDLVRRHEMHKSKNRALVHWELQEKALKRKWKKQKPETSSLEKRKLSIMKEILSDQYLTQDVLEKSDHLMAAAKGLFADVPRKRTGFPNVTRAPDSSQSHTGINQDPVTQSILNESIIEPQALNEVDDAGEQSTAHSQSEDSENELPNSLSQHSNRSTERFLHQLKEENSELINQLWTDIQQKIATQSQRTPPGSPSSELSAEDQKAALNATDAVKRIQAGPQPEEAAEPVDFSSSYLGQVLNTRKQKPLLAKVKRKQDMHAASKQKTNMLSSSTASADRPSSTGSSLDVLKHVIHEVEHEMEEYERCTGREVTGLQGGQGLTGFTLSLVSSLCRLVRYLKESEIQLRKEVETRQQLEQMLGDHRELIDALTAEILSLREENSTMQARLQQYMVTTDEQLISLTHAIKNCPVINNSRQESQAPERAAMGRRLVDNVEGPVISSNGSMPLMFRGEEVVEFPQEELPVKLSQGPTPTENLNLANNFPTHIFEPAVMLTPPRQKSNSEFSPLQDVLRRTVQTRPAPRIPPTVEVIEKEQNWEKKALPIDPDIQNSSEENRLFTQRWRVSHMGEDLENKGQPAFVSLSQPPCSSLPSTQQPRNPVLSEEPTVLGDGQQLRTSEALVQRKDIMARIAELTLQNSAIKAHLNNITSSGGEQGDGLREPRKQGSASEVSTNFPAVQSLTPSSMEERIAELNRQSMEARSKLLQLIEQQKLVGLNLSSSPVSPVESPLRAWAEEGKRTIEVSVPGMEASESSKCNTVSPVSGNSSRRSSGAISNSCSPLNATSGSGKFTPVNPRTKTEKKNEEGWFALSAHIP
# The list shows a part of the results. Small differences around the control level are noise.
# Compound: CN[C@@H]1C[C@H]2O[C@@](C)([C@@H]1OC)n1c3ccccc3c3c4c(c5c6ccccc6n2c5c31)C(=O)NC4 [staurosporine]
# Assay: log2 fold change of tryptic peptide abundance, ligand vs vehicle (limited proteolysis) (log2 ratio); higher = more trypsin-susceptible (destabilized)
# Details: ligand concentration: 20 uM; sample: mouse liver crude lysate; replicate design: treated separately
row,Target,log2 fold change
1,"UniProt Q8C3R1 (peptide sequence: LQHCPQELR, peptide start residue: 305)",-0.393
2,"UniProt Q8C6G8 (peptide sequence: LSQSDEDVIR, peptide start residue: 100)",0.137
3,"UniProt Q8BXN7 (peptide sequence: LTTDHTPER, peptide start residue: 222)",0.154
4,"UniProt Q8C0L8 (peptide sequence: AAMPTPGSTAGFR, peptide start residue: 284)",0.155
5,"UniProt Q8BY35 (peptide sequence: FHAQFFLPELQR, peptide start residue: 160)",-0.111
6,"UniProt Q8C2E7 (peptide sequence: SSADSNMDDICK, peptide start residue: 177)",-0.973
7,"UniProt Q8C570 (peptide sequence: NAAEELKPR, peptide start residue: 357)",-0.166
8,"UniProt Q8BX09 (peptide sequence: GLPLEGSTK, peptide start residue: 509)",0.108
9,"UniProt Q8C7U1 (peptide sequence: AQAQAQDAELAR, peptide start residue: 403)",0.471
10,"UniProt Q8C3S2 (peptide sequence: LMRPNGVQAVVR, peptide start residue: 318)",-0.463
11,"UniProt Q8C5L3 (peptide sequence: GMSNNTPQLNR, peptide start residue: 88)",0.129
12,"UniProt Q8C0E2 (peptide sequence: TPGQLSDNNSRQ, peptide start residue: 325)",0.137
13,"UniProt Q8BWQ1 (peptide sequence: ADIWLIR, peptide start residue: 253)",-0.673
14,"UniProt Q8C9B9 (peptide sequence: EKPLDEPEAQGLESR, peptide start residue: 2109)",-0.292
15,"UniProt Q8C5K5 (peptide sequence: IQNFLNEFK, peptide start residue: 185)",-0.346
16,"UniProt Q8C5D8 (peptide sequence: SETGVITSSGR, peptide start residue: 602)",0.266
17,"UniProt Q8C2P3 (peptide sequence: LSVPVTCK, peptide start residue: 140)",0.302
18,"UniProt Q8BWR8 (peptide sequence: ITFPDFSK, peptide start residue: 482)",0.567
19,"UniProt Q8BXA5 (peptide sequence: GLRPVFQFGTHSESER, peptide start residue: 377)",0.38
20,"UniProt Q8BX17 (peptide sequence: VYEAVELLK, peptide start residue: 990)",0.432
21,"UniProt Q8BYZ7 (peptide sequence: YITENNR, peptide start residue: 60)",-0.301
22,"UniProt Q8C3X8 (peptide sequence: AASEQAAANSNSR, peptide start residue: 681)",-0.034
23,"UniProt Q8BWY7 (peptide sequence: ENGEVYQR, peptide start residue: 154)",-0.0823
24,"UniProt Q8C804 (peptide sequence: VSHMGEDLENK, peptide start residue: 610)",0.573

# Random excerpt: two entries already listed, in no set order.
row,Target,log2 fold change
1,"UniProt Q8C3R1 (peptide sequence: LQHCPQELR, peptide start residue: 305)",-0.393
13,"UniProt Q8BWQ1 (peptide sequence: ADIWLIR, peptide start residue: 253)",-0.673
